Values of other authors in patent publication US7309817B2, “Plant alpha farnesene synthase and polynucleotides encoding same” (The Horticulture and Food Research Institute of New Zealand …, priority 2002, dated 2007).
For at least one compound, name, drawing or mass did not settle the structure.

Tested on: other sesquiterpene synthases
Conditions: other sesquiterpene synthases (Cai et al 2002, Steele et al 1998); read-out: Km reported in the literature; cited from earlier work

CC(C)=CCC/C(C)=C/CC/C(C)=C/CO[P@@](=O)(O)OP(=O)(O)O (stereo in doubt) [FDP, farnesyl diphosphate]
Km: 400 to 4500 nM
